# Measured values published in PubChem BioAssay AID651789 (National Center for Advancing Translational Sciences (NCATS), 2012).
# Inconclusive results, whose numbers are uncertain, are shown with a selection of clear calls. Potencies of inconclusive entries are doubtful fits and often do not repeat. The source made the active and inactive calls. Calls come from the whole dose curve; as a rule, active = well fitted inhibition curve with a large enough effect; inconclusive = small, poorly fitted or top-dose-only effect; inactive = no such curve, though single readings can be large or run the other way.
# Experiment: Acumen qHTS Assay for Inhibitors of the mTORC1 Signaling Pathway in WT MEF Cells: Hit Validation; note: nearly all actives have a fitted effect of over 60% in size
# Conditions: Acumen imaging; series mostly up to 37.3 µM
# Procedure, shortened: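 Read-out is immunofluorescent phospho-rpS6 (Ser235/236) normalised to PI-stained cell number, reported as % active cells using a 7.5 nM rapamycin threshold. Cells: WT or Tsc2-/-, p53-/- MEFs, compound-exposed 24 h at 37C; PI count also tracks viability.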
# Potency is the fitted concentration of half-maximal effect.
row,SMILES,Potency
1,COc1ccc(Cl)cc1NC(=O)CSc1nc(-c2ccco2)cc(C(F)(F)F)n1,inactive
2,CCCN(CCC)CCNC(=O)C1CCN(c2nc3ccc(CC)cc3s2)CC1,"inconclusive: 23.3 µM [inhibitor, single point]"
3,CCOc1cc(CNc2ccc(O)cc2)cc(Cl)c1OCc1ccccc1,"inconclusive: 20.7 µM [inhibitor, single point]"
4,O=C(Nc1ccc2nc(SCC(=O)N3CCCc4ccccc43)sc2c1)c1ccccc1F,inactive
5,Cc1ccc2nc(/C(C#N)=C/c3ccc(-c4ccc(F)cc4F)o3)[nH]c2c1,active: 4.14 µM
6,CC(C)S(=O)(=O)c1oc(-c2cccs2)nc1S(=O)(=O)c1ccc(F)cc1,active: 0.826 µM
7,CCOC(=O)c1c(NC(=O)c2ccc(S(=O)(=O)N(C)C)cc2)sc2c1CCN(C)C2,inactive
8,COc1cc2ncnc(Nc3ccc(F)c(Cl)c3)c2cc1OCCCN1CCOCC1,inactive
9,CCS(=O)(=O)c1oc(-c2ccc(F)cc2)nc1S(=O)(=O)c1ccccc1,"inconclusive: 0.369 µM [inhibitor, full curve]"
10,COc1ccc(-c2cc(C(F)(F)F)nc(S(=O)(=O)CCCC(=O)Nc3ccccc3C(F)(F)F)n2)cc1OC,"inconclusive: 26.1 µM [inhibitor, single point]"
11,O=C(COc1ccc(F)cc1)Nc1ccc(Cl)c(-c2nc3ccccc3[nH]2)c1,inactive
12,Cc1ccc(N(CC(O)Cn2c3ccccc3c3ccccc32)S(=O)(=O)c2ccc(F)cc2)cc1 (centres undefined),"inconclusive: 26.1 µM [inhibitor, single point]"
13,COc1ccc(C(=O)N2CCN(C(=O)COc3ccc(Br)cc3)CC2)cc1OC,inactive
14,CCCCS(=O)(=O)c1oc(-c2ccc(F)cc2)nc1S(=O)(=O)c1ccccc1,active: 0.656 µM
15,CCS(=O)(=O)c1ncc(Cl)c(C(=O)NCc2ccc(OC)cc2)n1,"inconclusive: 5.21 µM [inhibitor, full curve]"
16,Cc1ccc(C)c(CN2C(=O)C(=O)c3ccccc32)c1,"inconclusive: 1.31 µM [inhibitor, full curve]"
17,CCCN1C(=O)C(O)(CC(=O)c2ccc(CC)cc2)c2ccccc21 (centres undefined),"inconclusive: 5.21 µM [inhibitor, full curve]"
18,CC(=O)Nc1ccc(NC(=O)c2nc(S(=O)(=O)Cc3ccc(F)cc3)ncc2Cl)cc1,"inconclusive: 4.65 µM [inhibitor, partial curve]"
19,O=C(NCc1ccccc1)c1nc(S(=O)(=O)Cc2ccccc2)ncc1Cl,"inconclusive: 8.26 µM [inhibitor, partial curve]"
20,COCCCNc1ncnc2c1cnn2-c1ccc(F)cc1,"inconclusive: 9.27 µM [inhibitor, partial curve, poor fit]"

row,SMILES,Potency
1,Cc1oc(-c2ccccc2F)nc1Cn1c(SCc2cccc(Cl)c2)nc2ccncc21,inactive
2,Cc1c(C(=O)OC2CCCCC2)[nH]c2c1C(=O)CC(c1ccccc1Cl)C2 (centres undefined),"inconclusive: 3.69 µM [inhibitor, full curve]"
3,CCOC(=O)N1CCN(Cc2nc3cc(NC(=O)CC)ccc3n2C(C)C)CC1,"inconclusive: 2.07 µM [inhibitor, full curve, poor fit]"
4,Cc1nn(C(C)C(=O)NC2CCCCC2)c(=O)c2c1sc1ccccc12 (centres undefined),inactive
5,Cc1cccc(CS(=O)(=O)c2ncc(Cl)c(C(=O)NCc3ccccc3)n2)c1,active: 13.1 µM
6,CN(C(=O)CSc1nc2ccc(NC(=O)COc3ccc(F)cc3)cc2s1)c1ccccc1,"inconclusive: 26.1 µM [inhibitor, single point]"
7,CC(C)CCNc1nc(Nc2ccccc2)c2cnn(C)c2n1,inactive
8,Cc1cccc(NS(=O)(=O)c2ccc3[nH]c4c(c3c2)CCCCCC4)c1,"inconclusive: 16.5 µM [inhibitor, partial curve, poor fit]"
9,CCOc1ccccc1NC(=O)Cn1c(=O)n(CCC(=O)NCc2ccc3c(c2)OCO3)c(=O)c2ccccc21,inactive
10,Cc1c(Cl)cccc1-c1ccc(C(=O)Nc2ccc3oc(-c4cccnc4)nc3c2)o1,"inconclusive: 3.69 µM [inhibitor, full curve, poor fit]"
11,COc1ccc(N(Cc2ccccc2)C(=O)c2nc(S(C)(=O)=O)ncc2Cl)cc1,active: 2.07 µM
12,Nc1nnc(SCC(=O)Nc2cccc(F)c2)s1,inactive
13,CCN(CCCNC(=O)c1cc2c(=O)[nH]c3ccc(C)cc3c2s1)Cc1ccccc1,"inconclusive: 23.3 µM [inhibitor, single point]"
14,CCCCN1C(=O)C(O)(CC(=O)c2ccc(CC)cc2)c2cc(Br)ccc21 (centres undefined),"inconclusive: 18.5 µM [inhibitor, partial curve, poor fit]"
15,COc1ccc(NS(=O)(=O)c2ccc(-n3cccn3)cc2)cc1OC,"inconclusive: 1.17 µM [inhibitor, full curve]"
16,Cc1c(Cl)ccc2sc(NC(=O)c3ccc(S(=O)(=O)N4CCCc5ccccc54)cc3)nc12,"inconclusive: 23.3 µM [inhibitor, single point]"
17,CCOc1ccc(/C=C/c2nc3ccccc3n2S(=O)(=O)c2cccc(Cl)c2)cc1,"inconclusive: 20.7 µM [inhibitor, single point]"
18,CCCCOC(=O)c1ccc(NC(=O)c2sc3nc(C)cc(C)c3c2N)cc1,"inconclusive: 3.69 µM [inhibitor, full curve]"
19,O=C(CCS(=O)(=O)c1ccccc1)N(Cc1cccnc1)c1nc2c(F)cccc2s1,"inconclusive: 14.7 µM [inhibitor, single point]"

# Sorted by count of non-hydrogen atoms (descending): 3 of the compounds above.
row,SMILES,Potency
11,COc1ccc(N(Cc2ccccc2)C(=O)c2nc(S(C)(=O)=O)ncc2Cl)cc1,active: 2.07 µM
5,Cc1cccc(CS(=O)(=O)c2ncc(Cl)c(C(=O)NCc3ccccc3)n2)c1,active: 13.1 µM
15,COc1ccc(NS(=O)(=O)c2ccc(-n3cccn3)cc2)cc1OC,"inconclusive: 1.17 µM [inhibitor, full curve]"
